Test results as given in the supplement of paper PMC12067093, “Discovery and optimisation of a covalent ligand for TRIM25 and its application to targeted protein ubiquitination” (Chemical Science, 2025).
This is one part of the list.

Amino acid sequences for entries named in this document (tags omitted). A change or cut given only in a name is not applied to a line headed by its entry.
UniProt Q6PJI9: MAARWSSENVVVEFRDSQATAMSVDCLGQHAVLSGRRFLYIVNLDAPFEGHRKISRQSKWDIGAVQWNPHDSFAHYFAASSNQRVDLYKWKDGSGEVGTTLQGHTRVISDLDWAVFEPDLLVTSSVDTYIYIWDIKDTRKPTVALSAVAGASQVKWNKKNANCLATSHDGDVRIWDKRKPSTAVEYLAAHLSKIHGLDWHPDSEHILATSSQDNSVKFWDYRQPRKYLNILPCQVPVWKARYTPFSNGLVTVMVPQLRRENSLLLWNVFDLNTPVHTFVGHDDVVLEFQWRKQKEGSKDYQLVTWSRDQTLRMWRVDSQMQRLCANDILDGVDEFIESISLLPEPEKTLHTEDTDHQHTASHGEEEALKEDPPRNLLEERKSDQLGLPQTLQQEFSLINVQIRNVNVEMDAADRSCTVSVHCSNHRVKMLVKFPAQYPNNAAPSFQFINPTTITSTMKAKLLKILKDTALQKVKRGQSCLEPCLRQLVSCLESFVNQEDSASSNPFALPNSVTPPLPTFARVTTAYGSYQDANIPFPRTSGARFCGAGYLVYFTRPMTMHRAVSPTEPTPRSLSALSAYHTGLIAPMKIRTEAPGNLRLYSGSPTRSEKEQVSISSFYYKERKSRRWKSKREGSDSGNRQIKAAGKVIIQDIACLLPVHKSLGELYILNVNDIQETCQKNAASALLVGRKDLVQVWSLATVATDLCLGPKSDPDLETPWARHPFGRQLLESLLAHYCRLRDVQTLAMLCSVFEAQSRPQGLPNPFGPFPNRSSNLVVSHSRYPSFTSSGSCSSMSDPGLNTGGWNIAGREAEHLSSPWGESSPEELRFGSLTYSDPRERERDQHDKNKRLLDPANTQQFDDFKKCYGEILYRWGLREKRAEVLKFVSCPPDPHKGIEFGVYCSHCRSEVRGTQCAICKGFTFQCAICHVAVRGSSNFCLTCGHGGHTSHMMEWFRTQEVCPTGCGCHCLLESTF
UniProt Q9H7D7: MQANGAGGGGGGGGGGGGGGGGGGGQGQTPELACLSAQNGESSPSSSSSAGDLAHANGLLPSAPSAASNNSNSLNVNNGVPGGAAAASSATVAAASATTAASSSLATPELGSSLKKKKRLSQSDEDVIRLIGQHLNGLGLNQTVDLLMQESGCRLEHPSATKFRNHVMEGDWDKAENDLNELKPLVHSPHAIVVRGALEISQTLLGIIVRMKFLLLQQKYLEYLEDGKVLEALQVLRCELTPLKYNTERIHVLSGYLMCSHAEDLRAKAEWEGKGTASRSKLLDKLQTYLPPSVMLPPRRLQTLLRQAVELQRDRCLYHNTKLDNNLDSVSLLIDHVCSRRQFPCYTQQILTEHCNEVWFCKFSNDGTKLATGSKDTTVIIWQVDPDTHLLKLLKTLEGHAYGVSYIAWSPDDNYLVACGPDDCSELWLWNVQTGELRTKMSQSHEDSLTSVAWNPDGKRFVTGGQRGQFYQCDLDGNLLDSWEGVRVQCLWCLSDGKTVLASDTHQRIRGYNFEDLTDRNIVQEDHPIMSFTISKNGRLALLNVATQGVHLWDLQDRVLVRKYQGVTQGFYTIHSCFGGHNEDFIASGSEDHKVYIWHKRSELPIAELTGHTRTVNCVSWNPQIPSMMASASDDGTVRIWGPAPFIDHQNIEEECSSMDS
UniProt P98170, whole entry, looked up: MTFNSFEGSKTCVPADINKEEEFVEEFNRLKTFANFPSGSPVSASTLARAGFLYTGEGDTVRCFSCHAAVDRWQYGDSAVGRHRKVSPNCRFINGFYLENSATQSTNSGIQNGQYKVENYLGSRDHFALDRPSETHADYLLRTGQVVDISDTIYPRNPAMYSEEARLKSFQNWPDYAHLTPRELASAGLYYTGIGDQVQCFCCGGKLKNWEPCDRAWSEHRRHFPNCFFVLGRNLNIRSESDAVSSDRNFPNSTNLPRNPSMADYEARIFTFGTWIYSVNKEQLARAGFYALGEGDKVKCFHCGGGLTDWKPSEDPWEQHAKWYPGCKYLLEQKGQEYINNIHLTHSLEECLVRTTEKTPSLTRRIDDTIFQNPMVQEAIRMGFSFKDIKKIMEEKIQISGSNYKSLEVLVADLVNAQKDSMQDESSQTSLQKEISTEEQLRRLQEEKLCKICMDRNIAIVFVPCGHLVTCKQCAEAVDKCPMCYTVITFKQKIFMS
UniProt A4D1P6: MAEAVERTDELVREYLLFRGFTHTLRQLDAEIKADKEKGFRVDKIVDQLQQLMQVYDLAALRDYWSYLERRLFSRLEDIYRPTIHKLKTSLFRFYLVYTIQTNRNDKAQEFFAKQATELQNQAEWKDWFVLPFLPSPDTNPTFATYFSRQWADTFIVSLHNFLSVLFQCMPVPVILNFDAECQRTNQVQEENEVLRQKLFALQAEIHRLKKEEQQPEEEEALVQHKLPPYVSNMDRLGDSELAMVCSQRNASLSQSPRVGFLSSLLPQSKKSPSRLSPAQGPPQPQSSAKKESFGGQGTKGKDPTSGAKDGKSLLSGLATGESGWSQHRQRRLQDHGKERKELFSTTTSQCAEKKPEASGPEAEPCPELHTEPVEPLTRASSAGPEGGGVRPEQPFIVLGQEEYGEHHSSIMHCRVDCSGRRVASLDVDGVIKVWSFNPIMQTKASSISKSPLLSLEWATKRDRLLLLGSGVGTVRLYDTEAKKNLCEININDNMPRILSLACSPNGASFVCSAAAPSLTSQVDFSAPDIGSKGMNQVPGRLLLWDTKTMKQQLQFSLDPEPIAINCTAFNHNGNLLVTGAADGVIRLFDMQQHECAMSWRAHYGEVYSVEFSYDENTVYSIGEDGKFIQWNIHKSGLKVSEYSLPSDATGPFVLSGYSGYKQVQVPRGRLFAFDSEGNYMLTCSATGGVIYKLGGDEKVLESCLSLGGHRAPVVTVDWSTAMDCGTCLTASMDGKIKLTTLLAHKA
UniProt O75717: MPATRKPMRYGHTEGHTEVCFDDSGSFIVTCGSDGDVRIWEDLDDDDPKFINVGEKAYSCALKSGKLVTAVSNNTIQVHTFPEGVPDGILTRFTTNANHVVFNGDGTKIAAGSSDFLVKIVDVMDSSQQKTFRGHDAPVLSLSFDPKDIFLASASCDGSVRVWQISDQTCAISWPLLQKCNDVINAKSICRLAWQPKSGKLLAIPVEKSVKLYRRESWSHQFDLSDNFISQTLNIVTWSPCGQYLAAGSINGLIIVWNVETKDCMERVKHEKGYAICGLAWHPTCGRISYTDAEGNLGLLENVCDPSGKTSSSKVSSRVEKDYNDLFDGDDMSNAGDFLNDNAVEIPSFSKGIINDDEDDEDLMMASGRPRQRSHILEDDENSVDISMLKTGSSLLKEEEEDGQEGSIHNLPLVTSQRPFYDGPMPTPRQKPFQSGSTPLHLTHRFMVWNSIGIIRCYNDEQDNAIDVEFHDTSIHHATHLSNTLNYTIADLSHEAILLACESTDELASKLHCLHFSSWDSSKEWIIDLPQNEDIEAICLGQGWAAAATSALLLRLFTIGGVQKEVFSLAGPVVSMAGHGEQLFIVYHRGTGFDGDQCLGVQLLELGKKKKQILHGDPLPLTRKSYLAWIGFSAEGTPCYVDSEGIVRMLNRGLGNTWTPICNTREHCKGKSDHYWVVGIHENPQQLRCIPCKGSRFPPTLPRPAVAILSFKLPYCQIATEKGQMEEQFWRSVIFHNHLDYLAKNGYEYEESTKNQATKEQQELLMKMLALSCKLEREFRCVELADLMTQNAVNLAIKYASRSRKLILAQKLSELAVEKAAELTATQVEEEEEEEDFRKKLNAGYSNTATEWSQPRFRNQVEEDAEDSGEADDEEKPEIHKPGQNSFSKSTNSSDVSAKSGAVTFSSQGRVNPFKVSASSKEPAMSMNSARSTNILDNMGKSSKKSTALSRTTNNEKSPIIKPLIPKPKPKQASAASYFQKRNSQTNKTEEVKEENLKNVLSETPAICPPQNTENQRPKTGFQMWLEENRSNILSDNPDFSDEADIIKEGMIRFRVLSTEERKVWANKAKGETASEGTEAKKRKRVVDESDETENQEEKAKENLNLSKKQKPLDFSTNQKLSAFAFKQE
UniProt O15213: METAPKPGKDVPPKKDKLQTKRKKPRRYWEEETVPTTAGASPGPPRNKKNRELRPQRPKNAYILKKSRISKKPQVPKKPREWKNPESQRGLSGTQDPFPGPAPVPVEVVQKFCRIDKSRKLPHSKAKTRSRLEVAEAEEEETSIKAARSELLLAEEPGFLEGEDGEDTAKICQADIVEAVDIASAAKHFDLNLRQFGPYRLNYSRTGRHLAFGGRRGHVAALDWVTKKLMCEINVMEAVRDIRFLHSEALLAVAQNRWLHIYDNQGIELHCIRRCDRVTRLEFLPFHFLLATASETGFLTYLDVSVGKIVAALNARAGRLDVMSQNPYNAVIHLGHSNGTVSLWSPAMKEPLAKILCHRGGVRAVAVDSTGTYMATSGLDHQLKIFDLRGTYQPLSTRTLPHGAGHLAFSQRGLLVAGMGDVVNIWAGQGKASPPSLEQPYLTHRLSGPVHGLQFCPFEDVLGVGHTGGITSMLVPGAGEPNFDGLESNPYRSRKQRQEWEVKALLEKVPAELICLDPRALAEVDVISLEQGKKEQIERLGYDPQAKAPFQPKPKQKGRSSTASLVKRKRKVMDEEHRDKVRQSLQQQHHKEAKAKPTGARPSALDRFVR
UniProt Q9NW82: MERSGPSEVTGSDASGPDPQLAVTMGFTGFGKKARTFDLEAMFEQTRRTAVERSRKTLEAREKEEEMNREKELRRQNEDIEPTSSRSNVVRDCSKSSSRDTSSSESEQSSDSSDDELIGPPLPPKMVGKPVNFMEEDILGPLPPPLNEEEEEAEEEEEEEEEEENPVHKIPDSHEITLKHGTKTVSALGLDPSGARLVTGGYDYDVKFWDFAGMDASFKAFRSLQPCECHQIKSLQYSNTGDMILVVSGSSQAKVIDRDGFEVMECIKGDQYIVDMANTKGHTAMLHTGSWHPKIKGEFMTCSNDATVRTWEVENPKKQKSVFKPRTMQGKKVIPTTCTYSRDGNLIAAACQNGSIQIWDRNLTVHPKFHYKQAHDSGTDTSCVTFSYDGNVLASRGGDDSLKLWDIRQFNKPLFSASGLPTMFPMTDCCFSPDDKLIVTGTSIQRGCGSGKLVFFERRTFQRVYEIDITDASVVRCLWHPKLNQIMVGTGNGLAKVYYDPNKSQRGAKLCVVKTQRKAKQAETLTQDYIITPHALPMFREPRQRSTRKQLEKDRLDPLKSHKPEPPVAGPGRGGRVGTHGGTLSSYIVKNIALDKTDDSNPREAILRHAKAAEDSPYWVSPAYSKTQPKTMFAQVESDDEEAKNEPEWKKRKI
UniProt Q8IWB7: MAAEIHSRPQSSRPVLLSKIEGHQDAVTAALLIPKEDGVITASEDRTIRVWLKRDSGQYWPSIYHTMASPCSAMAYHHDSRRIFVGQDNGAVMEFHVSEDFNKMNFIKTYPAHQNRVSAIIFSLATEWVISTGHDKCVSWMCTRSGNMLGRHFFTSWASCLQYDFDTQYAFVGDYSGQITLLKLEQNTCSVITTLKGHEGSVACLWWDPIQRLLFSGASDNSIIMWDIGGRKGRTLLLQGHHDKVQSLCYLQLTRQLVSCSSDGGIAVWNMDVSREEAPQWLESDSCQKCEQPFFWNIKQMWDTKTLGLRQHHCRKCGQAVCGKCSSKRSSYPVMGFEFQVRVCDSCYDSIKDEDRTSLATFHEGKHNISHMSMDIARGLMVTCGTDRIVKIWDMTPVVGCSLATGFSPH
UniProt P30291: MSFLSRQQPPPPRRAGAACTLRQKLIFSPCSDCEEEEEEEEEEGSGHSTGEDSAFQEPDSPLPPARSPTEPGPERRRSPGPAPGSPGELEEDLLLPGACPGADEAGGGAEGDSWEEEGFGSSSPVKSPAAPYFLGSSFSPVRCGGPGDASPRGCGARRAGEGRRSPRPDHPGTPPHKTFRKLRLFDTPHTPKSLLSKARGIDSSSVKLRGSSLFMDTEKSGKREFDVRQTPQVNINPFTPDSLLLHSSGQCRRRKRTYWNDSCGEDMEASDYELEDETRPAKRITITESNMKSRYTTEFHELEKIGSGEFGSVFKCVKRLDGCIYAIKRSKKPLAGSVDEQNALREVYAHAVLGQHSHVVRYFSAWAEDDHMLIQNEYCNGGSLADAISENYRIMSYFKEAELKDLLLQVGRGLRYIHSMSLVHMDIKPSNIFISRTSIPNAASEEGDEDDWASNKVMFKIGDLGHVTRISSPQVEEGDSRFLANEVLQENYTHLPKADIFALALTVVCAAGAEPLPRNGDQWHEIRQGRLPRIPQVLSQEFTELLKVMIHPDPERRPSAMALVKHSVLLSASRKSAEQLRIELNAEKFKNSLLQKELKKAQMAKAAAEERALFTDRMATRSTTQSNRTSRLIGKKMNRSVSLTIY

Compound: CC1Cc2ccccc2N1C(=O)C1CCCN(C1)C(=O)CCl (mixture of isomers) [TRIM25 ligand 11 (diastereomer mixture)]
Assay: probe-labelled cysteine peptide fold change vs DMSO (competition) (log2 fold change); higher = less target engagement (more negative = stronger competition)
Settings: THP-1, incubation time: 4 h
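Note: competitive chemoproteomic profiling in live THP-1 cells with an iodoacetamide desthiobiotin (IA-DTB) probe, comparing probe-labelled peptide intensities in compound-treated cells against DMSO-treated controls.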

| Target | probe-labelled cysteine peptide fold change (10 µM) | probe-labelled cysteine peptide fold change (50 µM) |
| --- | --- | --- |
| WDR4_P57081_95_TKPWQCLSVR (UniProt P57081) | -0.0725 | -0.0752 |
| WDR12_Q9GZL7_205_FCSGSWDK (UniProt Q9GZL7) | -0.0737 | -0.0151 |
| XPC_Q01831_558_WVCVDCVHGVVGQPLTCYK (UniProt Q01831) | -0.061 | 0.0592 |
| WDR59_Q6PJI9_233_YLNILPCQVPVWK (UniProt Q6PJI9) | -0.0454 | 0.137 |
| WDR75_Q8IWA0_306_LGATIEHISVSPAGDLFCTSHSDNK (UniProt Q8IWA0) | 0.114 | 0.0175 |
| WDR26_Q9H7D7_259_IHVLSGYLMCSHAEDLR (UniProt Q9H7D7) | 0.0138 | -0.0331 |
| WDR55_Q9H6Y2_306_VVGSVGQHTGEPVEELALSHCGR (UniProt Q9H6Y2) | 0.132 | -0.00583 |
| WDR33_Q9C0J8_996_GGQDCR (UniProt Q9C0J8) | 0.0273 | 0.000158 |
| XIAP_P98170_227_HFPNCFFVLGR (UniProt P98170) | -0.11 | -0.00778 |
| WIPI2_Q9Y4P8_334_NICSLATIQK (UniProt Q9Y4P8) | 0.0181 | -0.0227 |
| WDR91_A4D1P6_684_LFAFDSEGNYMLTCSATGGVIYK (UniProt A4D1P6) | 0.0446 | 0.0897 |
| WDR1_O75083_438_CFSIDNPGYEPEVVAVHPGGDTVAIGGVDGNVR (UniProt O75083) | -0.0798 | -0.203 |
| WDR92_Q96MX6_70_CGTFGATSLQQR (UniProt Q96MX6) | -0.116 | -0.0661 |
| WDR77_Q9BQA1_172_AHAAQVTCVAASPHK (UniProt Q9BQA1) | 0.0954 | 0.187 |
| WDR1_O75083_194_FVNCVR (UniProt O75083) | 0.18 | -0.251 |
| WIZ_O95785_1399_TSHSSTEACCELCGLYFENR (UniProt O95785) | 0.146 | 0.17 |
| WDFY4_Q6ZS81_1665_FRDGLCAGSWVER (UniProt Q6ZS81) | -0.154 | -0.0201 |
| WDR24_Q96S15_189_VCFHPTEAHVLLSGSQDGFMK (UniProt Q96S15) | 0.0656 | -0.217 |
| XPNPEP1_Q9NQW7_309_CCMPYTPICIAK (UniProt Q9NQW7) | -0.193 | -0.0883 |
| WTAP_Q15007_90_EQEMQECTTQIQYLK (UniProt Q15007) | -0.25 | -0.161 |
| WDR7_Q9Y4E6_469_VTCLLYPHQVSAR (UniProt Q9Y4E6) | 0.0898 | -0.00299 |

| Target | probe-labelled cysteine peptide fold change (10 µM) | probe-labelled cysteine peptide fold change (50 µM) |
| --- | --- | --- |
| WDR1_O75083_325_SIQCLTVHK (UniProt O75083) | 0.0169 | 0.00756 |
| WDR81_Q562E7_765_VQPAVPLQCLLHR (UniProt Q562E7) | -0.0215 | -0.053 |
| WDR60_Q8WVS4_1047_WAAPEVDECNR (UniProt Q8WVS4) | -0.147 | -0.141 |
| WDR26_Q9H7D7_238_CELTPLK (UniProt Q9H7D7) | -0.0356 | -0.0732 |
| WDR3_Q9UNX4_625_IWGLDFGDCHK (UniProt Q9UNX4) | 0.0377 | 0.05 |
| WDHD1_O75717_598_GTGFDGDQCLGVQLLELGK (UniProt O75717) | 0.063 | 0.127 |
| WDHD1_O75717_170_VWQISDQTCAISWPLLQK (UniProt O75717) | -0.129 | 0.0219 |
| WDFY4_Q6ZS81_858_LYHEDHPQLSEEIQCSLASHIQSLVK (UniProt Q6ZS81) | 0.002 | -0.267 |
| WDFY4_Q6ZS81_835_MDEGDAAIMHPGVVCIMVR (UniProt Q6ZS81) | -0.0349 | -0.194 |
| WDR11_Q9BZH6_473_MCPPLTTK (UniProt Q9BZH6) | 0.0855 | 0.0522 |
| WRN_Q14191_1367_HGPDSGLQPSCDVNK (UniProt Q14191) | 0.14 | -0.042 |
| XPA_P23025_126+129_EFMDSYLMNHFDLPTCDNCR (UniProt P23025) | 0.169 | 0.182 |
| WDFY4_Q6ZS81_878_QVMCEAGLLGTLMASCHR (UniProt Q6ZS81) | 0.0899 | -0.0334 |
| WDR37_Q9Y2I8_329_TANLYDVETSELVHSLTGHDQELTHCCTHPTQR (UniProt Q9Y2I8) | 0.0866 | -0.193 |
| WIPI2_Q9Y4P8-2_401_AYTDDLGAVGGACLEDEASALRLDEDSEHPPMILR (UniProt Q9Y4P8) | -0.437 | -0.237 |
| WDR13_Q9H1Z4_432_QGACVVTGSEDMCVHFFDVER (UniProt Q9H1Z4) | -0.0252 | -0.0484 |
| WDFY3_Q8IZQ1_3027_EPVGQIVCTDK (UniProt Q8IZQ1) | 0.0645 | 0.00839 |
| WDR46_O15213_271_WLHIYDNQGIELHCIR (UniProt O15213) | 0.114 | 0.223 |
| WDFY4_Q6ZS81_2460_STDHYSCQCHSYADMR (UniProt Q6ZS81) | 0.377 | -0.0469 |
| WDR33_Q9C0J8_220_FATCSDDGTVR (UniProt Q9C0J8) | 0.00338 | -0.0563 |
| WNK4_Q96J92_412_EIIEGCIR (UniProt Q96J92) | -0.0738 | 0.113 |

| Target | probe-labelled cysteine peptide fold change (10 µM) | probe-labelled cysteine peptide fold change (50 µM) |
| --- | --- | --- |
| WRN_Q14191_1090_EHCYNQVPVELSTEK (UniProt Q14191) | -0.0759 | -0.0634 |
| WDR70_Q9NW82_302_GEFMTCSNDATVR (UniProt Q9NW82) | 0.061 | -0.106 |
| WDR44_Q5JSH3_642_ECLCCFQHIDFVTAIAFHPR (UniProt Q5JSH3) | 0.143 | 0.281 |
| WDR91_A4D1P6_366_KPEASGPEAEPCPELHTEPVEPLTR (UniProt A4D1P6) | -0.0977 | -0.192 |
| WDR66_Q8TBY9_567_SNYPPDCTLK (UniProt Q8TBY9) | 0.267 | -0.194 |
| WDR62_O43379_539_VEAHDAEVLCLEYSKPETGLTLLASASR (UniProt O43379) | 0.0174 | -0.205 |
| WDR70_Q9NW82_430_PLFSASGLPTMFPMTDCCFSPDDK (UniProt Q9NW82) | -0.308 | 0.0887 |
| WRN_Q14191_197_CSNWSK (UniProt Q14191) | 0.0253 | -0.223 |
| WDFY3_Q8IZQ1_896_NQQVMCEAGLHAR (UniProt Q8IZQ1) | 0.425 | 0.194 |
| WDFY1_Q8IWB7_317_CGQAVCGK (UniProt Q8IWB7) | -0.0639 | -0.00879 |
| WDR12_Q9GZL7_184+185_ALHCCR (UniProt Q9GZL7) | 0.152 | 0.0914 |
| WRAP53_Q9BUR4_519_LQLWWCGGAPDSSIPDDHQGEK (UniProt Q9BUR4) | 0.0556 | 0.0478 |
| WDR34_Q96EX3_529_EAEDLDCLAAEVAA (UniProt Q96EX3) | 0.164 | -0.202 |
| WDR82_Q6UXN9_141_SPNCQGLMHLQGK (UniProt Q6UXN9) | 0.189 | 0.1 |
| WEE1_P30291_263_TYWNDSCGEDMEASDYELEDETRPAKR (UniProt P30291) | -0.153 | -0.442 |
| WDR92_Q96MX6_337+339_GLCVCSSFDQTVR (UniProt Q96MX6) | -0.173 | 0.0878 |
| WARS_P23381_309_DRTDIQCLIPCAIDQDPYFR (UniProt P23381) | 0.0843 | 0.00831 |
| WWP2_O00308_88_VWSCHTLR (UniProt O00308) | 0.164 | 0.2 |
| WDFY1_Q8IWB7_287_EEAPQWLESDSCQK (UniProt Q8IWB7) | 0.277 | 0.13 |
| WDR37_Q9Y2I8_417_INVCVGQK (UniProt Q9Y2I8) | -0.0568 | -0.0133 |
| XIAP_P98170_90_KVSPNCR (UniProt P98170) | -0.0478 | -0.0535 |

| Target | probe-labelled cysteine peptide fold change (10 µM) | probe-labelled cysteine peptide fold change (50 µM) |
| --- | --- | --- |
| WDR59_Q6PJI9_888_FVSCPPDPHK (UniProt Q6PJI9) | 0.0371 | 0.194 |
| WDFY4_Q6ZS81_2251_KCGNIK (UniProt Q6ZS81) | -0.179 | -0.324 |
| WDR37_Q9Y2I8_329+330_TANLYDVETSELVHSLTGHDQELTHCCTHPTQR (UniProt Q9Y2I8) | 0.047 | -0.0726 |
| WEE1_P30291_323_RLDGCIYAIK (UniProt P30291) | -0.0487 | 0.00393 |
| WDR48_Q8TAF3_225_DGTQCLSGSSDGTIR (UniProt Q8TAF3) | -0.0488 | -0.132 |
| WDFY4_Q6ZS81_2352_EAEGEPDEVGVDCTQLTFFPALHESLHSEDFLELCR (UniProt Q6ZS81) | 0.294 | -0.00897 |
| XAB2_Q9HCS7_695_AIYSFCSQICDPR (UniProt Q9HCS7) | 0.0334 | 0.197 |
| WDR26_Q9H7D7_338_LDNNLDSVSLLIDHVCSR (UniProt Q9H7D7) | -0.068 | 0.135 |
| WWP2_O00308_838_SHTCFNR (UniProt O00308) | 0.0682 | 0.0454 |
| WDHD1_O75717_285_GYAICGLAWHPTCGR (UniProt O75717) | -0.0357 | -0.0182 |
| WDR81_Q562E7_1226_ILLDTACK (UniProt Q562E7) | -0.0576 | -0.0596 |
| XPC_Q01831_814_KLDIDCVQAITGFDFHGGYSHPVTDGYIVCEEFK (UniProt Q01831) | -0.0239 | 0.00756 |
| WDR6_Q9NNW5_1096_LGHGEPTFMNSTVFHVPDVADMDCWPVSPEFGHR (UniProt Q9NNW5) | 0.344 | -0.0636 |
| WDFY1_Q8IWB7_317_KCGQAVCGK (UniProt Q8IWB7) | -0.145 | -0.188 |
| XIAP_P98170_471_NIAIVFVPCGHLVTCK (UniProt P98170) | -0.0244 | 0.0441 |
| WDHD1_O75717_1008_NVLSETPAICPPQNTENQRPK (UniProt O75717) | 0.0998 | 0.0363 |
| WDR46_O15213_172_ICQADIVEAVDIASAAK (UniProt O15213) | 0.178 | 0.132 |
| WWP2_O00308_506_FLCHSNALPSHVK (UniProt O00308) | 0.0753 | 0.167 |
| WDR92_Q96MX6_184_VVCAGYDNGDIK (UniProt Q96MX6) | 0.0641 | 0.172 |
| WDR47_O94967_672_GSIYCVAWSPCGQLLATGSNDK (UniProt O94967) | -0.126 | -0.567 |
| XAB2_Q9HCS7_86+98_CVTDPAYEDVNNCHER (UniProt Q9HCS7) | 0.0663 | -0.16 |

Looked up above.
Entry of WDR37_Q9Y2I8_329+330_TANLYDVETSELVHSLTGHDQELTHCCTHPTQR (UniProt Q9Y2I8) under probe-labelled cysteine peptide fold change (10 µM): 0.047
Entry of WDR46_O15213_172_ICQADIVEAVDIASAAK (UniProt O15213) under probe-labelled cysteine peptide fold change (50 µM): 0.132
